{
  "sequences": {"note": "The chains behind the UniProt entries cited, without tags or fusion partners. Where a name states a change or a piece, a line headed by the entry shows the natural chain unless it says otherwise.", "UniProt P40616": "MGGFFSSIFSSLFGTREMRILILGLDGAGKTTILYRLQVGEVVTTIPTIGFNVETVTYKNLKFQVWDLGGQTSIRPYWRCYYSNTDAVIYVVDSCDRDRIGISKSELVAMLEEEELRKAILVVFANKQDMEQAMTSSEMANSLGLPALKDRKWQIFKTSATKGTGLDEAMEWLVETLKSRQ", "UniProt P45985": "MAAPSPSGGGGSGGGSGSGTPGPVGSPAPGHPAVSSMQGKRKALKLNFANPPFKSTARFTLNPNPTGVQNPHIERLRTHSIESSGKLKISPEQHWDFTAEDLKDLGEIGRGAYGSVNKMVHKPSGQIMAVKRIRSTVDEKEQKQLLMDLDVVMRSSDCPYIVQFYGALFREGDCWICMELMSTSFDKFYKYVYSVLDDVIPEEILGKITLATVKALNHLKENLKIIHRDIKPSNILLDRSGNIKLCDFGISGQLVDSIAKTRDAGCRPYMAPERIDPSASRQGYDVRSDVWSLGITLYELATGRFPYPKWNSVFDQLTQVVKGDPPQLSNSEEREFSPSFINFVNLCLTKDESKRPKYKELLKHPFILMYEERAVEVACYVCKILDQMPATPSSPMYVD", "UniProt P43361": "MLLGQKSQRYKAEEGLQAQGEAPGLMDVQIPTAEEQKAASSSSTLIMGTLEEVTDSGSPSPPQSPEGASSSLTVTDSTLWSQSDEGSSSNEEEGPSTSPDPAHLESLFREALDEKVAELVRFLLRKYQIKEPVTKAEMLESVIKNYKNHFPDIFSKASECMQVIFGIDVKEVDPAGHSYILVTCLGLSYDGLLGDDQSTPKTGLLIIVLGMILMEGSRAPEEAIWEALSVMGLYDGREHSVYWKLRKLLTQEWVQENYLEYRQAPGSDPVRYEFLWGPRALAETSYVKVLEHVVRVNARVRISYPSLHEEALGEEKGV", "UniProt P35637": "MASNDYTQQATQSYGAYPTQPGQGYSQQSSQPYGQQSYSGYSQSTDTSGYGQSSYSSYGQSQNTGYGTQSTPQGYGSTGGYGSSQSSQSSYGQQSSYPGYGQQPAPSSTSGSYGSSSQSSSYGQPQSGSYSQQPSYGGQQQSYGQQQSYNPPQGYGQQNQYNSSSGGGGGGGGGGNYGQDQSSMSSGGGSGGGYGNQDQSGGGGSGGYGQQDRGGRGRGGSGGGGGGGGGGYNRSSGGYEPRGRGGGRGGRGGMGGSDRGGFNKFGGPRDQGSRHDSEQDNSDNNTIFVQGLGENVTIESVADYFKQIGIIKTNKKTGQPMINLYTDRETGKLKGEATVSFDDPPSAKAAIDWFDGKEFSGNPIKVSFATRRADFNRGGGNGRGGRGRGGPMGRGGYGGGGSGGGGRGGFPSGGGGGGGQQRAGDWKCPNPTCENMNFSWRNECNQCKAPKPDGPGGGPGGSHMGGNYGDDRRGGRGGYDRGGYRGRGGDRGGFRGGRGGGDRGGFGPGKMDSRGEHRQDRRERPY", "UniProt P34949": "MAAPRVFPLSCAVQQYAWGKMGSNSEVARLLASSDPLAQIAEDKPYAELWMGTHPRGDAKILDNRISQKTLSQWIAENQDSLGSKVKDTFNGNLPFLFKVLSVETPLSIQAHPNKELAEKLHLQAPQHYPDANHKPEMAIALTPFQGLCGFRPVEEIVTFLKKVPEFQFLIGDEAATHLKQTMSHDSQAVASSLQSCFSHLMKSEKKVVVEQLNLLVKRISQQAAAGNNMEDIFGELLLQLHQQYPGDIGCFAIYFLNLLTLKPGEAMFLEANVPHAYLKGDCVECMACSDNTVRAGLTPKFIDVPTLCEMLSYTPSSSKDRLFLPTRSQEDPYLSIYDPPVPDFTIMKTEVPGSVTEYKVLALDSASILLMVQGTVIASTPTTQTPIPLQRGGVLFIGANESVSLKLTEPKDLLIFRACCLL", "UniProt P30533, whole entry": "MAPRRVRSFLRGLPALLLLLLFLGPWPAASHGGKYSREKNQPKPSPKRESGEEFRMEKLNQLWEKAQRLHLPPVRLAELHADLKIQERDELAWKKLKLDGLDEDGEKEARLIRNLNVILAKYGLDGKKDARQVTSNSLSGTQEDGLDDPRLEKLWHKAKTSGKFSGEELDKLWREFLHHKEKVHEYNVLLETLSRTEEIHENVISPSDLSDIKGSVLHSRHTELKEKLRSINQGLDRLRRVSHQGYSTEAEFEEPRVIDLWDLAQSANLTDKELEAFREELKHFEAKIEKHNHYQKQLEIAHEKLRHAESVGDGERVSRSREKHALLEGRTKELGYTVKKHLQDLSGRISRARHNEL", "UniProt P35251": "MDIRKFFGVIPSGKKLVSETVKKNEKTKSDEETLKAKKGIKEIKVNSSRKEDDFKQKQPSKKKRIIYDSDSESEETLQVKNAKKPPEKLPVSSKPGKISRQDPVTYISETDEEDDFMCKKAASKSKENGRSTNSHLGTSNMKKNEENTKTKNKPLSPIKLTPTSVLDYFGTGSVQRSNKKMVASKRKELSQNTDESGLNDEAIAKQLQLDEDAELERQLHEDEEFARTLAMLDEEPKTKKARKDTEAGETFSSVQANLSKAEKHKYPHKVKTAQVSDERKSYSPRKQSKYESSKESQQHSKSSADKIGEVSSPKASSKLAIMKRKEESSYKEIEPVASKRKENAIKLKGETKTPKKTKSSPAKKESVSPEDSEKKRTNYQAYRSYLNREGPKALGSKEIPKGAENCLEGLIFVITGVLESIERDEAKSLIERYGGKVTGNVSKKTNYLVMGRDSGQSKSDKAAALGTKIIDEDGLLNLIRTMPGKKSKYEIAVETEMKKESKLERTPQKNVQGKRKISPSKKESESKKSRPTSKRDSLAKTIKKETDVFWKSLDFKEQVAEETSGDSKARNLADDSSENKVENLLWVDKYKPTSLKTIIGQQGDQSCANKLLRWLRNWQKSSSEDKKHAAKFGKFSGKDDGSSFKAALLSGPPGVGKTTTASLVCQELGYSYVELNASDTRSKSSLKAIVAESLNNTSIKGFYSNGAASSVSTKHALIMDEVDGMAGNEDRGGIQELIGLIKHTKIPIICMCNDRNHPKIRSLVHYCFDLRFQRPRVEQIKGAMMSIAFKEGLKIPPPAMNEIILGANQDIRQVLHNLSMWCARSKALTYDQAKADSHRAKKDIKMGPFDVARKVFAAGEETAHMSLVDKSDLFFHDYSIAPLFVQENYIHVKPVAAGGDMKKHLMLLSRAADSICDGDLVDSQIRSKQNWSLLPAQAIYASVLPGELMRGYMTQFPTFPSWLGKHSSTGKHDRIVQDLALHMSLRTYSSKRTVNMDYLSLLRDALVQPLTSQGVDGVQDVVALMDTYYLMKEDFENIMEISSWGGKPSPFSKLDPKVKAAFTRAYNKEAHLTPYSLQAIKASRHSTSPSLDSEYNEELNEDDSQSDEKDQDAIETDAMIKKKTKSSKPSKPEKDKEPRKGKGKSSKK", "UniProt P29692": "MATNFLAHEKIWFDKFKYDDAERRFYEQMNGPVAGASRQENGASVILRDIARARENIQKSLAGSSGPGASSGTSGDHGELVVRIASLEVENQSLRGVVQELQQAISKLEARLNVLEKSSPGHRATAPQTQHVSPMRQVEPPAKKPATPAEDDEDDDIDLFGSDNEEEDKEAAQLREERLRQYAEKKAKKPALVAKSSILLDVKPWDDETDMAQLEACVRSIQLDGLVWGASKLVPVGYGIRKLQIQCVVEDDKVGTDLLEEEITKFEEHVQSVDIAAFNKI"},
  "source": "the supplement of paper PMC12819154",
  "about": "“High-throughput peptide-centric local stability assay extends protein–ligand identification to membrane proteins, tissues and bacteria” (Nature Structural & Molecular Biology, 2025)",
  "note": "The list shows a part of the results. Small differences around the control level are noise.",
  "data": [
    {"compound": "Cc1nc(Nc2ncc(C(=O)Nc3c(C)cccc3Cl)s2)cc(N2CCN(CCO)CC2)n1 [dasatinib]", "test": "log2 fold change of tryptic peptide abundance, ligand vs vehicle (limited proteolysis) (log2 ratio); higher = more trypsin-susceptible (destabilized)", "conditions": "ligand concentration: 5 uM; sample: K562 cleared lysate", "values": [
      {"target": "ARL1 (peptide sequence: AILVVFANK, peptide start residue: 119) (UniProt P40616)", "log2 fold change": -0.0456},
      {"target": "UniProt P45985 (peptide sequence: GDPPQLSNSEER, peptide start residue: 323)", "log2 fold change": 0.179},
      {"target": "MAGEA8 (peptide sequence: AEMLESVIK, peptide start residue: 126) (UniProt P43361)", "log2 fold change": -0.317},
      {"target": "FUS (peptide sequence: KTGQPMINLYTDRETGK, peptide start residue: 316) (UniProt P35637)", "log2 fold change": 0.16},
      {"target": "MPI (peptide sequence: KVVVEQLNLLVK, peptide start residue: 207) (UniProt P34949)", "log2 fold change": 0.292},
      {"target": "LRPAP1 (peptide sequence: LAELHADLK, peptide start residue: 76) (UniProt P30533)", "log2 fold change": -0.552},
      {"target": "RFC1 (peptide sequence: IPIICMCNDRNHPK, peptide start residue: 746) (UniProt P35251)", "log2 fold change": -0.858},
      {"target": "EEF1D (peptide sequence: ATNFLAHEKIWFDK, peptide start residue: 2) (UniProt P29692)", "log2 fold change": -0.35}
    ]}
  ]
}
